Laboratory results: US20240218016A1 (Shenzhen Institutes of Advanced Technology, priority 2019, published 2024)
Where no end group is shown, it is not given here. [ ]: non-standard residue; d: D form. Dopa = N[C@@H](Cc1ccc(O)c(O)c1)C(=O)O; Hyp = O=C(O)[C@@H]1C[C@@H](O)CN1

Assay: general procedure: Fmoc solid-phase peptide synthesis; Fmoc-Lys(Boc)-Wang resin (GL Biochem); also Fmoc-Dopa(acetonide)-Wang, Fmoc-Thr(tBu)-Wang and Fmoc-Tyr(tBu)-Wang resin; TBTU/DIPEA
Details: whole synthesis, HPLC, Agilent ZORBAX Eclipse SB-C18, UV at 220 nm (Shimadzu LCMS-8050 / LC-20), scale of the general procedure 9.15 g resin, acetate

Row | Substance | crude HPLC purity [%] | final HPLC purity [%]
1 | KAKPSY[Hyp][Hyp]T[Dopa] | 79.832 | 
2 | AKPSY[Hyp]T[Dopa][Hyp]K | 79.176 | 
3 | KAKPS[Dopa][Hyp][Hyp]T[Dopa] | 77.392 | 
4 | AKPS[Dopa][Hyp]T[Dopa][Hyp]K[Dopa] | 78.867 | 
5 | AKPSY[Hyp]TY[Hyp]K[Dopa] | 76.125 | 
6 | [Dopa]KPS[Dopa][Hyp]TA[Hyp]K | 77.121 | 
7 | [Dopa]KPSY[Hyp][Hyp]TAK | 76.125 | 
8 | [Dopa]AKPSY[Hyp]T[Dopa][Hyp]K | 79.853 | 
9 | AKPSY[Hyp][Hyp]T[Dopa]K[Dopa] | 78.938 | 
10 | Ala-Lys-Pro-Ser-Tyr-Hyp-Thr-DOPA-Hyp-Lys-Dopamine | 68.948 | 
11 | Ala-Lys-Pro-Ser-DOPA-Hyp-Hyp-Thr-DOPA-Lys-Dopamine | 70.822 | 
12 | Ala-Lys-Pro-Ser-Tyr-Hyp-Hyp-Thr-DOPA-Lys-Dopamine | 69.173 | 
13 | HCA-Ala-Lys-Pro-Ser-Tyr-Hyp-Thr-Tyr-Hyp-Lys | 77.957 | 
14 | AKPSY[Hyp]T[Dopa][Hyp]K[Dopa] | 74.934 | 
15 | KAK[Hyp]SY[Hyp][Hyp]T[Dopa] | 79.176 | 
16 | [Dopa]AKPS[Dopa][Hyp][Hyp]T[Dopa]K | 76.947 | 
17 | AKPS[Dopa][Hyp]T[Dopa][Hyp]K | 75.843 | 
18 | [Dopa]AKPSY[Hyp][Hyp]T[Dopa]K | 77.865 | 
19 | [Dopa]KPS[Dopa][Hyp][Hyp]TAK | 74.934 | 
20 | [Dopa]KPSY[Hyp]TA[Hyp]K | 78.312 | 
21 | [Dopa]AKPSY[Hyp]TY[Hyp]K |  | 98
22 | Ala-Lys-Pro-Ser-Tyr-Hyp-Thr-Tyr-Hyp-Lys-Dopamine | 70.476 | 
23 | AKPS[Dopa][Hyp][Hyp]T[Dopa]K[Dopa] | 77.876 | 
24 | KAK[Hyp]S[Dopa][Hyp][Hyp]T[Dopa] | 75.843 | 
25 | AKPSY[Hyp][Hyp]TYK[Dopa] | 79.393 | 
26 | Ala-Lys-Pro-Ser-Tyr-Hyp-Hyp-Thr-Tyr-Lys-Dopamine | 70.392 | 
27 | [Dopa]AKPSY[Hyp][Hyp]TYK | 77.944 | 
28 | [Dopa]AKPS[Dopa][Hyp]T[Dopa][Hyp]K | 75.123 | 
29 | Ala-Lys-Pro-Ser-DOPA-Hyp-Thr-DOPA-Hyp-Lys-Dopamine | 69.532 | 
30 | AKPSY[Hyp]TY[Hyp]K | 77.392 | 

Same assay, conditions: whole synthesis, UV 220 nm, scale of the general procedure 9.15 g resin, acetate

Row | Substance | crude HPLC purity [%]
31 | [Dopa]AKPSY[Hyp]TY[Hyp]K | 79.363
